Source: article PMC12040169 (PLOS Biology, 2025)
The list shows a part of the results.

Test system: T1, CTL2-GFP (C. trachomatis L2/434/Bu, GFP-expressing)
T1 construct: L2/434/Bu, GFP-expressing
Design: species or system HeLa; Intracellular C. trachomatis growth in HeLa cells, bulk GFP fluorescence relative to DMSO
Details: bulk GFP, single well; 28.5 h, 10 µM; inhibitor

SMILES | % of control remaining [%]
O[C@H](CNCc1ccccc1)COc1cccc2c1C1CCC2CC1 [CBK000370] | 141.355
CCNc1cc2ccccc2c(-c2ccc3c(c2)OCCCO3)n1 [CBK089641] | 134.97
FC(F)(F)Oc1cccc(-c2cncc(NCc3cccs3)n2)c1 [CBK065909] | 127.39
N#Cc1ccccc1CSc1nc2ccc([N+](=O)[O-])cc2[nH]1 [CBK269589] | 145.587
NS(=O)(=O)c1ccc2nc(NC(=O)c3ccc(N4C(=O)CCC4=O)cc3)sc2c1 [CBK291192] | 73.6595
CCCCN(C)c1c(C)nc2c(Oc3ncccn3)cccn12 [CBK147190] | 124.047
COc1cc(NC(=O)N2CCN(c3cc(C(F)(F)F)ccn3)CC2)cc(OC)c1OC [CBK162349] | 104.223
COc1ccc(Cl)cc1S(=O)(=O)N1CCC(C(=O)NCCO)CC1 [CBK270002] | 116.524
Fc1ccc(CSc2nnc(-c3ccccn3)[nH]2)cc1 [CBK270074] | 89.3739
COc1cccc(C2C(C(=O)c3ccc(Cl)cc3)=C(O)C(=O)N2CCCN2CCOCC2)c1 (stereo not drawn) [CBK264865] | 105.786
COC(=O)c1c(NC(=O)C(=O)NCc2ccccn2)sc2c1CCC2 [CBK269431] | 135.065
Cc1c(CN2CCCC(n3cnc4cc(F)ccc43)C2)cnn1C (stereo not drawn) [CBK284478] | 147.501
O=C(Nc1ccsc1C(=O)O)c1ccccc1Cl [CBK152440] | 109.712
COc1ccc(-c2nc3ccccc3o2)cc1NC(=O)C(C)Oc1ccc(Cl)cc1Cl (stereo not drawn) [CBK266787] | 86.5412
OCCN(Cc1cccnc1)Cc1cccn1Cc1ccccc1F [CBK282945] | 129.537
O=C(NCCCn1ccnc1)c1ccccc1C(=O)c1ccccc1 [CBK262954] | 106.907
O=C(NCc1ccccn1)c1nn[nH]c1Nc1cccc(Cl)c1 [CBK288030] | 126.119
CN1CCc2c(C#N)c(N)n(N)c(=S)c2C1 [CBK264055] | 100
COc1cc(OCc2ccccc2)ccc1CN1CCN(Cc2ccccc2)CC1 [CBK074766] | 137.127
CC(=O)N1CCc2c(sc3nc(N)c(C(=O)NCCc4ccc(F)cc4)c(C(F)(F)F)c23)C1 [CBK269176] | 128.467
CC1CNCCN1C(=O)c1cnn(-c2cccc(Cl)c2)c1 (stereo not drawn) [CBK304238] | 98.2572
Cc1cc(NS(=O)(=O)c2cnn(-c3ccccc3)c2C)n(C)n1 [CBK067252] | 106.227
Cc1oc2ccccc2c1CN(CCN(C)C)Cc1ccncc1 [CBK283097] | 121.93
O=C(NCc1c(O)c(Cl)cc(Cl)c1Cl)c1ccccc1 [CBK260920] | 89.6533
Cc1ccc(NC(=O)Cc2cn(C)c3ccccc23)c(C)n1 [CBK200298] | 125.436
CC(C)(C)c1cc(CN(Cc2cc(C(C)(C)C)c(O)c(C(C)(C)C)c2)/N=C\c2ccccc2O)cc(C(C)(C)C)c1O [CBK261990] | 107.215

A few values from the list.
Entry for NS(=O)(=O)c1ccc2nc(NC(=O)c3ccc(N4C(=O)CCC4=O)cc3)sc2c1 [CBK291192] under % of control remaining [%]: 73.6595
Entry for COc1ccc(-c2nc3ccccc3o2)cc1NC(=O)C(C)Oc1ccc(Cl)cc1Cl (stereo not drawn) [CBK266787] under % of control remaining [%]: 86.5412
Entry for COC(=O)c1c(NC(=O)C(=O)NCc2ccccn2)sc2c1CCC2 [CBK269431] under % of control remaining [%]: 135.065

Next part.

SMILES | % of control remaining [%]
CC(C)Nc1ncnc2scc(-c3cccs3)c12 [CBK017085] | 104.315
CC(=O)OC(COc1cccc(Cl)c1)Cn1cnc2cc(C)c(C)cc21 (stereo not drawn) [CBK266152] | 161.143
Cc1ncsc1CCS(=O)(=O)N1CCOCC1c1cccc(F)c1 (stereo not drawn) [CBK304254] | 107.203
CC(C)(C)OC(=O)N1CCC(Oc2cncc(Cl)n2)CC1 [CBK001762] | 100
Cc1ccc(S(=O)(=O)N=C2NCN(C)CN2)cc1 [CBK261972] | 127.638
CC(=O)N1c2ccccc2C(C)=CC1C1CCCC(=O)C1 (stereo not drawn) [CBK007219] | 124.385
O=C(Nc1cc(Oc2ccc(Cl)cc2)cc([N+](=O)[O-])c1)c1cnn2c(C(F)F)cc(C3CC3)nc12 [CBK268925] | 167.819
Cc1cc(C)c(OCC(=O)Nc2cc(-c3nc4ncccc4o3)ccc2C)c(Cl)c1 [CBK072887] | 108.466
Cc1sc(C(N)=O)cc1[N+](=O)[O-] [CBK066863] | 125.945
COc1ccc2oc(=O)c(C(=O)Nc3cccc(O)c3)cc2c1 [CBK270070] | 174.336
CCOc1cccc(CN2CCCCC2c2[nH]ncc2C(N)=O)n1 (stereo not drawn) [CBK304750] | 117.742
CC(N)C1CCCN(S(=O)(=O)c2ccc(OCc3ncnn3C)cc2)C1 (stereo not drawn) [CBK304105] | 102.438
C/C=C/c1ccc(OCCCSc2nc(C)cc(O)n2)c(OC)c1 [CBK267413] | 149.374
c1ccc(-c2nnc3ccccc3c2N2CCNCC2)cc1 [CBK066888] | 0
CN1CCC[C@H]1COc1ncccc1OCCO [CBK042185] | 150.549
Cc1ccccc1OCC(=O)NCc1ccc(C(=O)O)cc1 [CBK287155] | 102.988
O=C1CCC(=O)N1CCOc1nccnc1OC1CCN(CCc2ccc3ccccc3c2)CC1 [CBK084358] | 116.649
Cn1cc(C(c2ccc(OCC(=O)O)cc2)c2cn(C)c3ccccc23)c2ccccc21 [CBK266403] | 18.7257
CCc1nn(Cc2ccccn2)c(=O)c2cc3sc(C)cc3n12 [CBK284113] | 157.578
CNC(=O)C1(Cc2ccc(-c3ccccc3)cc2)CCN(C(=O)C2CCCCC2)CC1 [CBK285762] | 113.251
Cc1nnc([C@H]2CCN(Cc3ccc4c(c3)OCO4)C2)o1 [CBK289392] | 121.233
Cc1cc(=O)oc2cc(Sc3sccc3[N+](=O)[O-])ccc12 [CBK002936] | 133.656
CNC(=O)c1ccc(-c2cc(C)cs2)nc1N(C)C [CBK106150] | 120.7
O=C(NC1CCN(Cc2c(F)cccc2Cl)CC1)C1CCN(C(=O)OCc2ccccc2)CC1 [CBK074720] | 77.1222
FC(F)(F)c1cnc(Oc2ccc(-n3ccnc3)cc2)c(Cl)c1 [CBK161625] | 99.2831
